Measurements from article PMC8987532.
These are yes or no findings as the source states them, for the method shown. In cells and extracts the contact can be indirect. Some entries that bind do so weakly or less than the wild type. Tags and fused reporters may be left off the sequences shown.

Biological target: T1, Flag-TRIM65 (Tripartite motif containing 65) (human) (UniProt Q6PJ69)
T1 sequence: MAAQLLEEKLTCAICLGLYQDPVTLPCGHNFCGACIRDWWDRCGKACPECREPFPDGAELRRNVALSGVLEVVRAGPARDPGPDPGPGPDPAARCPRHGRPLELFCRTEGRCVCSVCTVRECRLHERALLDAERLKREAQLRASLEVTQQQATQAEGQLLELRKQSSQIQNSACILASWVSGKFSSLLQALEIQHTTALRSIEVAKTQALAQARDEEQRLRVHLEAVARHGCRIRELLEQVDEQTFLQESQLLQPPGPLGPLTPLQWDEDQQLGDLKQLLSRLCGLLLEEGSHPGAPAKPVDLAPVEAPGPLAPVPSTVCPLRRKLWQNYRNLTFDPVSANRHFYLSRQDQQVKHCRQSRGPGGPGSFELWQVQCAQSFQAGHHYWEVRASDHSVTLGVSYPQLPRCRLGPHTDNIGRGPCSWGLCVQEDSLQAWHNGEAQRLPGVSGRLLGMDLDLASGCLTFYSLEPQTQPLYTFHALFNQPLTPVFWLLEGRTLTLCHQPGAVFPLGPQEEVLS
Test: co-IP; HeLa cell lysates incubated overnight at 4°C with anti-FLAG antibody or IgG crosslinked to protein A/G beads; precipitates blotted with p53 antibodies

binding: binds
Substance: p53 (from UniProt P04637 1-393)
